Data as given in the supplement of paper PMC4962491.
Structures can show the parent of a compound that is named as a salt. ± gives the standard deviation of the averaged measurements. Only a part is listed here, and it is no random draw. Most values lie within the scatter of the assay; repeated measurements hardly agree.

Test system: FaDu
Experiment: mitochondrial oxygen consumption rate normalised to cell number, Z score over the library; higher = higher oxygen consumption (negative = OCR reduction)
Details: treatment time 24 h, assay medium: 5 mM galactose, 5 mM pyruvate, 4 mM glutamine
Method: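 Primary screen: FaDu cells were incubated 24 h with Pharmakon 1600 / TDI oncology set compounds at 2 or 10 uM. Mitochondrial-specific OCR (basal minus 2 uM antimycin A) was measured on a Seahorse XF96 in assay medium with 5 mM galactose, 5 mM pyruvate and 4 mM glutamine, then corrected for Hoechst cell number and expressed as a Z score […]. Compounds that cut cell number by >66% were excluded. Two repeats.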

Structure (SMILES) | mitochondrial oxygen consumption rate normalised (2 µM) | mitochondrial oxygen consumption rate normalised (10 µM)
CCOC(=O)C1=C[C@@H](OC(CC)CC)[C@H](NC(C)=O)[C@@H](N)C1 | 0.252 ± 0.53 | 
CNCCCC1c2ccccc2C=Cc2ccccc21 | 1.44 ± 1.1 | 
Nc1nc(Cl)nc2c1ncn2[C@H]1C[C@H](O)[C@@H](CO)O1 [Cladribine] | -0.125 ± 0.28 | 
Cc1cccc(C(=O)O)c1O | -0.675 ± 0.6 | 
Cc1ccc2c(Br)cc(Br)c(OC(=O)c3ccccc3)c2n1 | -0.982 ± 0.62 | -2.31 ± 0.47
CN[C@@H]1[C@H](O[C@H]2[C@H](O[C@H]3[C@H](O)[C@@H](O)[C@H](N=C(N)N)[C@@H](O)[C@@H]3N=C(N)N)O[C@@H](C)[C@]2(O)C=O)O[C@@H](CO)[C@H](O)[C@H]1O | -0.674 ± 0.2 | 
CC1(C)S[C@@H]2[C@H](NC(=O)[C@H](N)c3ccc(O)cc3)C(=O)N2[C@H]1C(=O)O | -0.269 ± 0.47 | 
COc1cccc2c1C(=O)c1c(O)c3c(c(O)c1C2=O)C[C@@](O)(C(=O)CO)C[C@@H]3O[C@H]1C[C@H](N)[C@H](O)[C@H](C)O1 [Doxorubicin HCl] | 0.698 ± 0.75 | 
OCCOCCN1CCN(C2=Nc3ccccc3Sc3ccccc32)CC1 | 0.0842 ± 0.32 | 
N=C(N)c1ccc(OCCCCCOc2ccc(C(=N)N)cc2)cc1 | -1.04 ± 0.19 | -3.01 ± 0.078
O=C(OC[C@H]1O[C@@H](OC(=O)c2cc(O)c(O)c(OC(=O)c3cc(O)c(O)c(O)c3)c2)[C@H](OC(=O)c2cc(O)c(O)c(OC(=O)c3cc(O)c(O)c(O)c3)c2)[C@@H](OC(=O)c2cc(O)c(O)c(OC(=O)c3cc(O)c(O)c(O)c3)c2)[C@@H]1OC(=O)c1cc(O)c(O)c(OC(=O)c2cc(O)c(O)c(O)c2)c1)c1cc(O)c(O)c(OC(=O)c2cc(O)c(O)c(O)c2)c1 | -0.399 ± 0.43 | 
CCCCC(=O)O[C@H]1CC[C@H]2[C@@H]3CCc4cc(O)ccc4[C@H]3CC[C@]12C | 0.481 ± 0.4 | 
Cc1ccc(Nc2c(F)cccc2Cl)c(CC(=O)O)c1 | 1.65 ± 2 | 
CN1CCc2c(c3ccccc3n2Cc2ccccc2)C1 | -0.453 ± 0.29 | 
Fc1ccc(C(c2ccc(F)cc2)N2CCN(C/C=C/c3ccccc3)CC2)cc1 | 1.02 ± 0.067 | 
CCCCOc1ccc(OCCCN2CCOCC2)cc1 | 0.0446 ± 0.25 | -0.434 ± 0.23
CC1CCc2cc(F)cc3c(=O)c(C(=O)O)cn1c23 (stereo not drawn) | 0.976 ± 0.58 | 
CC(C)c1nc(CN(C)C(=O)N[C@H](C(=O)N[C@@H](Cc2ccccc2)C[C@H](O)[C@H](Cc2ccccc2)NC(=O)OCc2cncs2)C(C)C)cs1 | -0.113 ± 0.047 | 
CC(=O)Oc1cccc(C(=O)O)c1OC(C)=O | 0.0307 ± 0.068 | 
CC(C)[C@H]1CC[C@H](C(=O)N[C@H](Cc2ccccc2)C(=O)O)CC1 | -0.405 ± 0.13 | 
Nc1nc(N)nc(-c2cc(Cl)ccc2Cl)n1 | -0.693 ± 0.11 | 
S=P(N1CC1)(N1CC1)N1CC1 [Thiotepa] | 0.649 ± 0.12 | 
S=P(N1CC1)(N1CC1)N1CC1 | 0.642 ± 1.7 | 

Structure (SMILES) | mitochondrial oxygen consumption rate normalised (2 µM) | mitochondrial oxygen consumption rate normalised (10 µM)
NS(=O)(=O)c1cc2c(cc1C(F)(F)F)NC(Cc1ccccc1)NS2(=O)=O (stereo not drawn) | 0.422 ± 0.46 | 
CC(CN1c2ccccc2Sc2ccccc21)N(C)C (stereo not drawn) | -0.132 ± 0.82 | 
O=C(c1ccc(OCCN2CCCCC2)cc1)c1c(-c2ccc(O)cc2)sc2cc(O)ccc12 [Raloxifene HCl] | 0.682 ± 0.39 | -0.567 ± 1.1
O=C(c1ccc(OCCN2CCCCC2)cc1)c1c(-c2ccc(O)cc2)sc2cc(O)ccc12 | -0.222 ± 0.26 | -0.0851 ± 0.4
CCn1cc(C(=O)O)c(=O)c2cc(F)c(N3CCNCC3)cc21 | 0.462 ± 0.077 | 
CC1(C)S[C@@H]2[C@H](N3C(=O)[C@@H](c4ccccc4)NC3(C)C)C(=O)N2[C@H]1C(=O)O | -0.0969 ± 0.94 | 
CCOC(=O)C1=C(C)NC(C)=C(C(=O)OC)C1c1cccc([N+](=O)[O-])c1 (stereo not drawn) | 0.629 ± 1.6 | 
CNC(=O)c1c(I)c(NC(C)=O)c(I)c(C(=O)O)c1I | 1.05 ± 0.82 | -0.0805 ± 0.4
COC1=CC(=O)C[C@@H](C)[C@]12Oc1c(Cl)c(OC)cc(OC)c1C2=O | 0.58 ± 0.19 | 
CCC(=O)NCC[C@@H]1CCc2ccc3c(c21)CCO3 | 0.469 ± 0.012 | -0.125 ± 0.067
CN(C)CCC(c1ccc(Cl)cc1)c1ccccn1 (stereo not drawn) | 0.274 ± 0.57 | 
OCC(O)CN1CCN(c2ccccc2)CC1 (stereo not drawn) | 1.19 ± 1.1 | 
Cc1onc(-c2ccccc2)c1C(=O)N[C@@H]1C(=O)N2[C@@H]1SC(C)(C)[C@@H]2C(=O)O | 0.231 ± 0.17 | 
CCCC(CCC)C(=O)O | -0.322 ± 0.43 | 
CN(C)CCCC1(c2ccc(F)cc2)OCc2cc(C#N)ccc21 (stereo not drawn) | 0.53 ± 0.18 | 
Cn1c(=O)c2c(ncn2C)n(C)c1=O | -0.331 ± 0.31 | 
O=C([O-])C(O)[C@H](O)[C@@H](O)[C@H](O)[C@H](O)CO.O=C([O-])C(O)[C@H](O)[C@@H](O)[C@H](O)[C@H](O)CO.[Ca+2] (stereo partly drawn) | 0.103 ± 0.48 | 
Cc1c(OCC(F)(F)F)ccnc1C[S+]([O-])c1nc2ccccc2[nH]1 (stereo not drawn) | -0.118 ± 0.7 | 
CC(C)(C)NCC(O)c1ccc(O)c(CO)c1 (stereo not drawn) | 0.429 ± 1 | 
Cn1c(=O)c2[nH]c(Br)nc2n(C)c1=O | -0.947 ± 0.073 | 0.142 ± 0.29
COc1ccc2cc1Oc1ccc(cc1)C[C@H]1c3c(cc4c(c3Oc3cc5c(cc3OC)CCN(C)[C@@H]5C2)OCO4)CCN1C | -1.42 ± 1.3 | 
CC(O)CC(C)(C)O (stereo not drawn) | 0.391 ± 0.11 | 
CCOC(=O)c1ccc(O)cc1 | 0.644 ± 2.1 | 

Structure (SMILES) | mitochondrial oxygen consumption rate normalised (2 µM) | mitochondrial oxygen consumption rate normalised (10 µM)
COC(=O)Nc1nc2cc(C(=O)c3ccc(F)cc3)ccc2[nH]1 | 0.298 ± 0.3 | 0.265 ± 0.4
OC[C@H]1O[C@H](O[C@H]2[C@H](O)[C@@H](O)C(O)O[C@@H]2CO)[C@H](O)[C@@H](O)[C@@H]1O (stereo partly drawn) | 0.67 ± 0.86 | 
CN(C)CCC(c1ccccc1)c1ccccn1 (stereo not drawn) | -0.215 ± 0.51 | 
CC(C)CCC[C@@H](C)[C@H]1CC[C@H]2[C@@H]3CC=C4C[C@@H](O)CC[C@]4(C)[C@H]3CC[C@]12C | 0.3432 ± 0.0023 | -0.87 ± 0.089
COc1ccc2nc3cc(Cl)ccc3c(Nc3cc(CN4CCCC4)c(O)c(CN4CCCC4)c3)c2n1 | -0.0714 ± 0.73 | 
Nc1nc(=O)c2c([nH]1)NCC(CNc1ccc(C(=O)N[C@@H](CCC(=O)O)C(=O)O)cc1)N2C=O (stereo partly drawn) | -0.707 ± 1 | 
CCCCOc1ccc(CC(=O)NO)cc1 | 0.0165 ± 0.48 | -0.625 ± 0.84
CC(=O)OC(C)C[N+](C)(C)C (stereo not drawn) | 0.171 ± 0.68 | 
Oc1c(Cl)cc(Cl)cc1Sc1cc(Cl)cc(Cl)c1O | 1.13 ± 0.9 | 
C=CCc1ccccc1OCC(O)CNC(C)C (stereo not drawn) | -0.001 ± 0.14 | 
NC[C@H]1CC[C@H](C(=O)O)CC1 | 0.819 ± 0.34 | 
O=C(O)c1cc(=O)c2c(OCC(O)COc3cccc4oc(C(=O)O)cc(=O)c34)cccc2o1 | 0.0141 ± 1.8 | 
CC(=O)c1ccc2c(c1)N(CCCN1CCN(CCO)CC1)c1ccccc1S2 | 0.16 ± 0.51 | 
NC(=O)NO [Hydroxyurea] | 0.602 ± 0.14 | 
NC(=O)NO | -0.116 ± 0.32 | 
Clc1ccccc1C(c1ccccc1)(c1ccccc1)n1ccnc1 | 0.123 ± 0.88 | 
CO/N=C1\CN(c2nc3c(cc2F)c(=O)c(C(=O)O)cn3C2CC2)CC1CN (stereo not drawn) | -1.04 ± 0.39 | 
Clc1ccc(COC(Cn2ccnc2)c2ccc(Cl)cc2Cl)cc1 (stereo not drawn) | -1.26 ± 0.54 | -2.19 ± 0.39
CO[C@H]1C(=O)[C@]2(C)[C@@H](OC)C[C@H]3OC[C@@]3(OC(C)=O)[C@H]2[C@H](OC(=O)c2ccccc2)[C@]2(O)C[C@H](OC(=O)[C@H](O)[C@@H](NC(=O)OC(C)(C)C)c3ccccc3)C(C)=C1C2(C)C [Cabazitaxel] | 0.077 ± 0.35 | 
CCCC(C(=O)OCCN(CC)CC)(c1ccccc1)c1ccccc1 | -0.173 ± 0.27 | 
O=S(=O)(O)CCSSCCS(=O)(=O)O | 0.21 ± 0.91 | 
CN1CCC[C@H]1c1cccnc1 | 2.38 ± 1.2 | 
Cc1cc(CC(C)CC(C)(C)C)n(O)c(=O)c1 (stereo not drawn) | -3.459 ± 0.0059 | 

Structure (SMILES) | mitochondrial oxygen consumption rate normalised (2 µM) | mitochondrial oxygen consumption rate normalised (10 µM)
CCN(CC)C(=O)N1CCN(C)CC1 | -0.625 ± 1.5 | 
O=C(O)c1cc(O)c(O)c(O)c1 | -0.13 ± 0.095 | 
COc1ccc(-n2nc(CCC(=O)N(C)O)cc2-c2ccc(Cl)cc2)cc1 | 0.995 ± 0.43 | -0.88 ± 0.44
O=P(O)(O)C(O)(Cc1cccnc1)P(=O)(O)O | 0.408 ± 1 | 
CC(=O)[C@H]1CC[C@H]2[C@@H]3CC=C4C[C@@H](OC(=O)CCC(=O)O)CC[C@]4(C)[C@H]3CC[C@]12C | -0.252 ± 0.4 | 
CC(CCc1ccc(O)cc1)NCC(O)c1ccc(O)cc1 (stereo not drawn) | 0.435 ± 0.4 | 0.0984 ± 0.26
CCCCC(CC)COC(=O)c1ccccc1O (stereo not drawn) | -0.0197 ± 1 | 
CCN(CCCc1ccccc1)CCCc1ccccc1 | -0.426 ± 0.98 | 
CC[C@]1(O)C[C@@H]2CN(CCc3c([nH]c4ccccc34)[C@@](C(=O)OC)(c3cc4c(cc3OC)N(C)[C@H]3[C@@](O)(C(=O)OC)[C@H](OC(C)=O)[C@]5(CC)C=CCN6CC[C@]43[C@@H]65)C2)C1 [Vinblastine Sulfate] | 0.517 ± 0.36 | 
CC[C@]1(O)C[C@@H]2CN(CCc3c([nH]c4ccccc34)[C@@](C(=O)OC)(c3cc4c(cc3OC)N(C)[C@H]3[C@@](O)(C(=O)OC)[C@H](OC(C)=O)[C@]5(CC)C=CCN6CC[C@]43[C@@H]65)C2)C1 | -0.342 ± 0.092 | 
CC1=C(C(=O)O)N2C(=O)[C@@H](NC(=O)[C@H](N)c3ccc(O)cc3)[C@H]2SC1 | 0.281 ± 0.57 | 
CC(C)(Oc1ccc(C2CC2(Cl)Cl)cc1)C(=O)O (stereo not drawn) | -0.705 ± 0.13 | 
Nc1nccs1 | -0.934 ± 0.3 | 
NC(=O)c1cccnc1 | 0.99 ± 0.075 | 
CCCc1nc(C(C)(C)O)c(C(=O)OCc2oc(=O)oc2C)n1Cc1ccc(-c2ccccc2-c2nnn[nH]2)cc1 | 0.438 ± 1.2 | 
Cn1c(=O)c2c(ncn2CC(O)CO)n(C)c1=O (stereo not drawn) | -0.125 ± 0.56 | 
C=C(NC(=O)C(=C)NC(=O)c1csc(C2=N[C@@H]3c4csc(n4)[C@H]4NC(=O)c5csc(n5)[C@H]([C@](C)(O)[C@@H](C)O)NC(=O)[C@H]5CSC(=N5)/C(=C/C)NC(=O)[C@H]([C@@H](C)O)NC(=O)c5csc(n5)[C@]3(CC2)NC(=O)[C@H](C)NC(=O)C(=C)NC(=O)[C@H](C)NC(=O)[C@H]([C@@H](C)CC)N[C@@H]2C=Cc3c([C@H](C)O)cc(nc3[C@H]2O)C(=O)O[C@@H]4C)n1)C(N)=O | -0.9 ± 0.74 | 
C[C@@H]1CC2C3C[C@H](F)C4=CC(=O)C=C[C@]4(C)[C@@]3(F)[C@@H](O)C[C@]2(C)[C@@]1(O)C(=O)COC(=O)C(C)(C)C (stereo partly drawn) | -0.248 ± 0.37 | 
O=C(O)CCc1nc2ccccc2[nH]1 | 0.614 ± 0.81 | 
CCCCCCCCCCCCCCCC[N+](C)(C)C | -4.59 ± 0.28 | 

Shown field by field: entries from further up.
Cc1ccc2c(Br)cc(Br)c(OC(=O)c3ccccc3)c2n1
  mitochondrial oxygen consumption rate normalised (2 µM): -0.982 ± 0.62
  mitochondrial oxygen consumption rate normalised (10 µM): -2.31 ± 0.47
CC1(C)S[C@@H]2[C@H](NC(=O)[C@H](N)c3ccc(O)cc3)C(=O)N2[C@H]1C(=O)O
  mitochondrial oxygen consumption rate normalised (2 µM): -0.269 ± 0.47
CCCC(CCC)C(=O)O
  mitochondrial oxygen consumption rate normalised (2 µM): -0.322 ± 0.43
CC(=O)OC(C)C[N+](C)(C)C (stereo not drawn)
  mitochondrial oxygen consumption rate normalised (2 µM): 0.171 ± 0.68
